# PubChem BioAssay AID624291 (National Center for Advancing Translational Sciences (NCATS), 2012)
# The campaign covered roughly 350,000 compounds. About 220 (0.063%) were called active. The shares of active, inactive and inconclusive entries below differ from those in the screen. Calls come from the whole dose curve; as a rule, active = well fitted activation curve with a large enough effect; inconclusive = small, poorly fitted or top-dose-only effect; inactive = no such curve, though single readings can be large or run the other way. Where the call is inconclusive, the potency comes from a doubtful curve fit.
# Test: qHTS for Activators of Integrin-Mediated Alleviation for Muscular Dystrophy; note: nearly all actives have a fitted effect of over 60% in size;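 for activation: 100% = response of the positive control SU9516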
# Settings: alpha7betagal myoblasts, beta-gal FDG fluorescence, 48 h; activation: at 38.3 µM (top of the series)
# Outline: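 Alpha7betagal+/- myoblasts (passage 13) were plated 16-24 hr, then exposed to compounds (1:260 dilution of DMSO stock) for 48 hours at 37C. After MPER lysis, β-galactosidase reporter activity was read as FDG fluorescence (ex 480/em 540) after 30 minutes.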
# Potency is the fitted concentration of half-maximal effect.
SMILES,Potency,activation
CCc1ccccc1NC(=O)/C(C#N)=C/c1ccc(Sc2ccccc2)o1,"inconclusive: 11.2 µM [activator, single point]",–
O=S(=O)(c1ccc(Br)cc1)c1nc(-c2ccccc2)oc1NCc1cccnc1,"inconclusive: 2 µM [activator, full curve, poor fit]",–
COc1ccc(Cl)cc1Nc1nnc(-c2ccncc2)s1,"inconclusive: 2 µM [activator, full curve, poor fit]",–
COc1ccc(N2CCN(C(=O)CNC(=O)c3nn(-c4ccc(OC)cc4)c(=O)c4ccccc34)CC2)cc1,"inconclusive: 2.24 µM [activator, full curve, poor fit]",–
Cc1cccc(Nc2nccc(N(C)C)c2C#N)c1,"inconclusive: 10 µM [activator, single point]",–
CC1(C)CC(=O)CC(=NCC(=O)O)C1,"inconclusive: 7.94 µM [activator, partial curve, poor fit]",–
O=C(O)c1cc(Nc2cc(Cl)c3nonc3c2[N+](=O)[O-])ccc1O,"inconclusive: 8.91 µM [activator, single point]",–
O=C(c1ccccc1)c1cccc(C(=O)c2ccccc2)c1,"inconclusive: 15.8 µM [activator, partial curve, poor fit]",–
CCN(CC)CCOC(=O)c1cccc(Cl)c1,inactive,–
O=C(COc1ccc(F)cc1)Nc1nc2c(s1)CCCC2,inactive,–
COc1ccc(-n2nc(C(=O)NCC(=O)N3CCCCCC3)c3ccccc3c2=O)c(OC)c1,"inconclusive: 15.8 µM [activator, single point]",–
Cc1ccc(SCC(=O)OCC(=O)N(C)C2CCS(=O)(=O)C2)cc1C (stereo not drawn),"inconclusive: 1.41 µM [activator, partial curve, poor fit]",–
C=CCSc1nc2sc3c(c2c(=O)n1-c1ccc(C)cc1)CCN(C)C3,"inconclusive: 28.2 µM [activator, single point]",–
CCOC(=O)c1sc2nc(N3CCOCC3)c3c(c2c1N)CCN(Cc1ccccc1)C3,inactive,–
Cc1ccc(-c2cc(-c3ccc(C)cc3O)[nH]n2)cc1,"inconclusive: 1.41 µM [activator, partial curve, poor fit]",–
O=C(O)C(=Cc1cccc([N+](=O)[O-])c1)c1ccc(Cl)cc1,inactive,–
Cn1c(=O)oc2cc(S(=O)(=O)N3CCC(C(=O)NCc4ccccc4Cl)CC3)ccc21,"inconclusive: 3.55 µM [activator, single point]",–
C=CCN1C(=O)c2ccccc2NC1c1ccc(Br)s1 (stereo not drawn),"inconclusive: 28.2 µM [activator, single point]",–
COc1ccc(NC(=O)CSc2c3c(nc4cc(Cl)ccc24)CCCC3)cc1OC,inactive,–
CC1(C)C=C2C(=NN(c3ccccc3)C(N)=C2C#N)CO1,"inconclusive: 3.55 µM [activator, single point]",–
CCOc1ccccc1C(=O)OCC(=O)Nc1cccc(S(=O)(=O)NC2=NCCCCC2)c1,"inconclusive: 2.82 µM [activator, single point]",–
CC(=O)Nc1ccc(C(=O)COC(=O)c2nc3nc(C)cc(C)n3n2)cc1,"inconclusive: 28.2 µM [activator, single point]",–
O=C1C(=Cc2cccn2-c2ccccc2)C(=O)c2ccccc21,inactive,–

SMILES,Potency,activation
OC1(c2ccccc2)CCN(Cc2ccccc2)C2CCCCC21 (stereo not drawn),inactive,–
NC(=O)CSc1oc(-c2ccco2)nc1S(=O)(=O)c1ccc(Br)cc1,"inconclusive: 11.2 µM [activator, partial curve, poor fit]",–
CCCc1cc(=O)oc2cc(C)cc(OCC(=O)NCC(O)c3ccccc3)c12 (stereo not drawn),"inconclusive: 2.82 µM [activator, single point]",–
COc1ccccc1/C=N/NC(=O)CNC(=O)c1ccccc1,"inconclusive: 5.01 µM [activator, single point]",–
CCN(CC)S(=O)(=O)c1ccc2[nH]c(=O)cc(C(=O)Nc3ccc(C)c(S(=O)(=O)N(CC)CC)c3)c2c1,inactive,–
CCOC(=O)c1sc(NC(=O)CNCc2cccnc2)c(C(=O)OCC)c1C,"inconclusive: 0.501 µM [activator, full curve, poor fit]",–
COc1ccccc1C(=O)Nc1nc(-c2ccc3c(c2)OCCO3)cs1,"inconclusive: 28.2 µM [activator, single point]",–
Oc1ccc(Br)cc1/C=N/n1c(C2CCCCC2)n[nH]c1=S,"inconclusive: 4.47 µM [activator, single point]",–
CCN1CCN(c2cc(SC(C)C)nc(-c3ccc(OC)cc3)n2)CC1,inactive,–
CC[C@H]1C(=O)[C@@H](Cc2ccccc2)[C@@H]2CCN3C(=O)CCC[C@H]1[C@H]23,inactive,–
COc1ccccc1NC(=O)Cn1cc(C(=O)C(=O)N2CCOCC2)c2ccccc21,"inconclusive: 3.16 µM [activator, partial curve, poor fit]",–
COc1ccc(N(CC(=O)Nc2c(C)n(C)n(-c3ccccc3)c2=O)S(=O)(=O)c2ccc(C)cc2)cc1,"inconclusive: 2.82 µM [activator, partial curve, poor fit]",–
CC(C)c1ccc(NC(=O)c2sccc2-n2cccc2)cc1,inactive,–
CC(C)(C)OC(=O)CNC(=O)c1[nH]cnc1C(=O)NCCCCCNC(=O)OC(C)(C)C,inactive,–
O=C(NCC1CCCO1)c1cc(-c2ccccc2)nc2ccccc12 (stereo not drawn),"inconclusive: 5.01 µM [activator, single point]",–
Cc1ccn2cc(-c3cccc([N+](=O)[O-])c3)nc2c1,"inconclusive: 2.82 µM [activator, partial curve, poor fit]",–
O=C(c1c[nH]c(=O)n(-c2ccccc2)c1=O)N1CCc2ccccc21,"inconclusive: 31.6 µM [activator, partial curve, poor fit]",–
O=C(c1ccncc1)N1CCN(C(=O)c2cccs2)CC1,inactive,–
Cn1c(=O)n(CC(=O)NCC2CCCO2)c(=O)c2c3c(sc21)CCCC3 (stereo not drawn),"inconclusive: 35.5 µM [activator, partial curve, poor fit]",–
CC1(C)CC(N2CCCCC2)=CC(=[N+]2CCCCC2)C1,–,inconclusive: -19.1% [activator]
CC/C(=N/Nc1cccc(C)c1)c1cnnc(SC)n1,inactive,–
COc1cc(S(=O)(=O)n2ccc(C)n2)ccc1Cl,"inconclusive: 0.708 µM [activator, full curve, poor fit]",–
O=C(O)C1CSC2(c3ccc(F)cc3)CCC(=O)N12 (stereo not drawn),"inconclusive: 5.01 µM [activator, single point]",–

# Pulled by compound from the entries so far:
SMILES,Potency,activation
C=CCN1C(=O)c2ccccc2NC1c1ccc(Br)s1 (stereo not drawn),"inconclusive: 28.2 µM [activator, single point]",–
O=C(O)C(=Cc1cccc([N+](=O)[O-])c1)c1ccc(Cl)cc1,inactive,–
O=C(COc1ccc(F)cc1)Nc1nc2c(s1)CCCC2,inactive,–
Cn1c(=O)oc2cc(S(=O)(=O)N3CCC(C(=O)NCc4ccccc4Cl)CC3)ccc21,"inconclusive: 3.55 µM [activator, single point]",–
NC(=O)CSc1oc(-c2ccco2)nc1S(=O)(=O)c1ccc(Br)cc1,"inconclusive: 11.2 µM [activator, partial curve, poor fit]",–
COc1ccccc1NC(=O)Cn1cc(C(=O)C(=O)N2CCOCC2)c2ccccc21,"inconclusive: 3.16 µM [activator, partial curve, poor fit]",–

# More entries.

SMILES,Potency,activation
COc1cccc(/C=C/c2nc(S(=O)(=O)c3ccccc3)c(N(C)C)o2)c1,"inconclusive: 1.26 µM [activator, single point]",–
O=C(Nc1ccc(F)cc1F)c1ccccc1NC(=O)C1CC=CCC1C(=O)O (stereo not drawn),inactive,–
CCn1cc(/C=C(\NC(=O)c2cc(OC)c(OC)c(OC)c2)C(=O)NCCN2CCOCC2)c2ccccc21,"inconclusive: 1.58 µM [activator, partial curve, poor fit]",–
CCc1ccc(Nc2nnc(SCC(=O)NC(=O)CN3CCCC3=O)s2)cc1,inactive,–
O=C(CNC(=O)OCc1ccccc1)Oc1cc2oc(=O)cc(-c3ccccc3)c2cc1Cl,"inconclusive: 14.1 µM [activator, single point]",–
CC1(c2cccc(Br)c2)NC(=O)N(CC(=O)Nc2ccc(F)cc2)C1=O (stereo not drawn),"inconclusive: 5.01 µM [activator, single point]",–
O=C(COC(=O)CNC(=O)c1sc2ccccc2c1Cl)Nc1c(Cl)cc(Cl)cc1Cl,"inconclusive: 28.2 µM [activator, single point]",–
Cc1ccc2c(c1)N(CC(=O)N1CCOCC1)C(=O)C(C)O2 (stereo not drawn),"inconclusive: 8.91 µM [activator, partial curve, poor fit]",–
Cc1cc(NCc2ccccn2)nc2ccccc12,inactive,–
FC(F)(F)c1cccc(N2CCN(CC3CC4C=CC3C4)CC2)c1 (stereo not drawn),inactive,–
Cc1ccc(NC(=S)Nc2ccc3cn[nH]c3c2)c(C)c1,inactive,–
O=c1c2ccccc2nc2c3ccccc3c(NCc3cccnc3)nn12,"inconclusive: 5.01 µM [activator, single point]",–
Cc1ccc(CNC(=O)CSc2ncn[nH]2)cc1,"inconclusive: 28.2 µM [activator, partial curve, poor fit]",–
COCCNc1oc(/C=C/c2ccc(F)cc2)nc1S(=O)(=O)c1ccccc1,"inconclusive: 5.62 µM [activator, partial curve, poor fit]",–
Cc1[nH]n2c(=O)c3c(nc2c1-c1ccc(Cl)cc1)CCC3,inactive,–
CCCCN1CC[C@H]2C=CC[C@@H](C(=O)N3CCOCC3)[C@H]2C1=O,"inconclusive: 5.01 µM [activator, single point]",–
CC(=O)OC1CC(n2ccc(NC(=O)c3ccccc3)nc2=O)OC1CO (stereo not drawn),"inconclusive: 11.2 µM [activator, partial curve, poor fit]",–
Cc1ccc(/C=N/NC(=O)c2ccc3ccccc3c2)s1,inactive,–
Cc1cccc2nc(CNC(=O)CC3C(=O)NCCN3Cc3cccc(F)c3)cn12 (stereo not drawn),"inconclusive: 11.2 µM [activator, single point]",–
COc1cc(NC(=O)CN(C)S(=O)(=O)c2ccc3c(c2)CC(C)N3C(C)=O)cc(OC)c1OC (stereo not drawn),active: 10 µM,–
COc1cccc(NC(=S)NNC(=O)c2c([N+](=O)[O-])c(C)nn2C)c1,inactive,–
CCCCCN(C(=O)CCCSc1nncs1)c1c(N)n(CCCC)c(=O)[nH]c1=O,"inconclusive: 28.2 µM [activator, single point]",–
